The other results are listed elsewhere or left out. Shown are side measurements of this screen, not its main read-out; they come without a call. The list favours compounds with an active or inconclusive main result. Potencies come from curve fits of mixed quality, noted in brackets.
Experiment: qHTS Assay for Lipid Storage Modulators in Drosophila S3 Cells;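 for cell number change: cells counted by Cell Tracker Red CMTPX staining in the red channel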
Conditions: BODIPY lipid droplet fluorescence, 18-24 h; for cell number change: measured here: cell count max response, cells fed with added oleic acid
Procedure, shortened: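 Drosophila S3 cells got compounds at several concentrations plus oleic acid (400 uM solution). Laser-scanning cytometry with 488 nm excitation read lipid droplets at 500-530 nm and cells at 575-640 nm. Percent activity was relative to 20 uM Triacsin C.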

[1] = measured here: cell number channel AC50, cells fed with added oleic acid
[2] = measured here: lipid fluorescence (Fed channel) AC50, cells fed with added oleic acid

Structure (SMILES)	cell number change	AC50 [1]	AC50 [2]
CSc1nc(N)c(C#N)c(-c2ccc(Cl)cc2)c1C#N	3.43%	6.51 µM [rising, single point]	
Cn1nc(C(C)(C)C)cc1C(=O)NCc1cc(F)cc2c1OCOC2	-53.1%	9.2 µM [falling, partial curve]	10.3 µM [falling, partial curve]
CC1CCN(C(=O)NC(=O)c2ccccc2)CC1	15.2%		29.1 µM [falling, single point]
c1cnc2ccc(-c3ccc4ncccc4c3)cc2c1	-13.5%		25.9 µM [falling, single point]
O=C(c1ccc(CS(=O)(=O)c2ccc(Br)cc2)o1)N1CCN(c2ccc(F)cc2)CC1	-39%	29.1 µM [falling, single point]	
CC(=O)NC1CC2CCCC(C1)N2CC(=O)NCc1ccc(F)cc1 (stereo not drawn)	-3.87%		1.3 µM [falling, partial curve]
CC(=O)Nc1cc(OC(=O)c2ccco2)cc(OC(=O)c2ccco2)c1	-0.0424%		23.1 µM [falling, single point]
COc1ccc(NC(=O)C2CC(=O)OC23CCOC(C)(C)C3)cc1 (stereo not drawn)	5.69%	0.092 µM [falling, full curve, poor fit]	
COc1ccc(S(=O)(=O)N(CC(=O)N2CCN(C)CC2)C2CCCCC2)cc1OC	20.9%		0.116 µM [rising, full curve, poor fit]
O=C(COc1ccc2ccc(=O)oc2c1)NCCCN1CCCC1=O	-21.2%		
CNC(=O)CN(c1ccc2c(c1)OCCO2)S(C)(=O)=O	-15%		16.4 µM [falling, partial curve]
CCCN1CCN(C(=O)Cn2cnc3sc(C)c(S(=O)(=O)N4CCC(C)CC4)c3c2=O)CC1	25%		
COc1ccc(OC)c(C2C(C#N)=C(N)Oc3cc(C)n(Cc4ccccn4)c(=O)c32)c1 (stereo not drawn)	-12.4%		
CCC(C)[C@H](NC(=O)NCc1ccc(Cl)cc1)C(=O)OC (stereo partly drawn)	16.3%		3.26 µM [falling, partial curve, poor fit]
CCc1ccc(S(=O)(=O)Nc2c(C)nc3nc[nH]n3c2=O)cc1	5.86%		
CCOc1ccc(C(=O)CN2C(=O)NC3(CCCCCC3)C2=O)cc1	-57.4%	32.6 µM [falling, single point]	
COC(=O)C1=CN(Cc2ccc(OC)c(OC)c2)C=C(C(=O)OC)C1c1ccc(O)cc1	-37.3%	20.6 µM [falling, single point]	
O=C(c1ccco1)N1CCN(c2ncnc3c2[nH]c2ccc(Cl)cc23)CC1	-7.02%		0.259 µM [rising, full curve, poor fit]
O=C(OCc1nnc(-c2ccccc2)o1)c1ccco1	-0.814%		
CC(C)(C)c1ccc(S(=O)(=O)NCC(=O)N2CCN(C(=O)c3ccco3)CC2)cc1	-12.4%		
O=C(O)C1C2C=CC(C2)C1C(=O)Nc1ccc(Cl)c(Cl)c1 (stereo not drawn)	1.05%		

Structure (SMILES)	cell number change	AC50 [1]	AC50 [2]
O=S(=O)(NCC1CCCO1)c1ccc2oc3ccc(S(=O)(=O)NCC4CCCO4)cc3c2c1 (stereo not drawn)	13.2%		
COc1ccc(-n2c(SCc3ccc([N+](=O)[O-])cc3)nnc2-c2ccc(C)cc2)cc1	-8.14%		23.1 µM [rising, single point]
Cn1nc(C(=O)Oc2cc(=O)n(C)c3ccccc23)c2ccccc2c1=O		6.51 µM [falling, single point]	6.51 µM [falling, single point]
NC(=O)c1ccccc1NC(=O)Cc1cccs1	-5.56%		18.4 µM [rising, single point]
O=C(O)c1cccc(-n2cccc2/C=C\[N+](=O)[O-])c1	-24.2%		
CCOC(=O)c1cnc2ccc(OCC)cc2c1N1CCN(c2ccccc2)CC1	-0.566%	1.16 µM [rising, full curve, poor fit]	1.84 µM [rising, partial curve]
O=C(COC(=O)c1cccs1)Nc1nnc(-c2ccccc2)o1	11.8%		1.64 µM [rising, partial curve]
Cc1ccnc(NC(=O)c2cc([N+](=O)[O-])cc([N+](=O)[O-])c2)c1	9.34%		
CCC1(c2ccc(F)cc2)NC(=O)N(CC(=O)N2CCN(C(=O)c3cccs3)CC2)C1=O (stereo not drawn)	-12.5%		
COc1ccc(CCCc2nnc(SCC(=O)Nc3cc(C)c(C)cc3Br)o2)cc1	84.5%	5.8 µM [rising, full curve]	
Cc1ccccc1/C=C1\C(=O)Nc2ccc(F)cc21	-24.1%		
CCOC(=O)[C@H]1[C@H]2COc3ccc(OC)cc3[C@@H]2N2C(=O)c3cc(C)ccc3NC(=O)[C@@]12C			0.0731 µM [falling, full curve, poor fit]
COc1ccc([C@H]2CC(=O)C=C(c3ccccc3)C2)cc1OC	-24.3%		
CCC(C)c1ccc(NC(=S)NC2CCN(Cc3ccccc3)CC2)cc1 (stereo not drawn)	-23.5%		
C=CCOc1cccc(/C=N/NC(=O)C(OC)c2ccccc2)c1 (stereo not drawn)	13.9%	6.51 µM [rising, single point]	3.26 µM [rising, full curve]
O=C(N/N=C1\C2CN3CCN(C2)CC1(c1ccccc1)C3)Nc1ccccc1	-13.5%		0.651 µM [rising, full curve]
CN(C)c1ccc(/C=N/NC2=NS(=O)(=O)c3ccccc32)cc1		6.51 µM [rising, single point]	
COc1ccc2[nH]c3c(=O)n(CCc4ccccc4)cnc3c2c1	32.3%	1.46 µM [rising, full curve]	7.31 µM [rising, partial curve]
COC(=O)c1c(NC(=O)CSc2nnc(-c3cccnc3)n2Cc2ccco2)sc(C)c1C		0.58 µM [rising, single point]	
O=C1C=C(c2cc3ccccc3s2)C[C@@H](c2ccc3c(c2)OCO3)C1	10.6%		0.116 µM [rising, full curve, poor fit]
Cc1cc(C(=O)CSc2nnc(Nc3ccccc3)s2)c(C)n1CC1CCCO1 (stereo not drawn)	-40.4%	16.4 µM [falling, partial curve, poor fit]	29.1 µM [falling, single point]

Structure (SMILES)	cell number change	AC50 [1]	AC50 [2]
c1ccc2c(c1)[nH]c1c(N3CCC4(CC3)OCCO4)ncnc12	9.28%		5.17 µM [rising, single point]
O=C(COC(=O)CCNS(=O)(=O)c1ccc(Cl)cc1)NCc1ccco1	-0.403%		0.0184 µM [falling, full curve, poor fit]
COc1ccc(/C=C(\C#N)C(=O)NC(C)c2ccccc2)cc1O (stereo not drawn)	10.4%		0.58 µM [rising, single point]
Cc1ccc(S(=O)(=O)N2CCN(C(=O)COC(=O)/C=C/c3ccccc3)CC2)c(C)c1	13.4%		9.2 µM [rising, partial curve]
COC(=O)c1cn(-c2ccc(Cl)cc2)c(=O)c2ccccc12	-14.3%		0.58 µM [falling, single point]
CCOC(=O)C1CCN(C(=O)c2ccc(Cl)c(S(=O)(=O)N3CCCC3)c2)CC1	-0.867%		29.1 µM [rising, single point]
Cc1nc(CSc2nc3[nH]ncc3c(=O)n2-c2ccccc2)cs1	7.28%		4.61 µM [rising, partial curve, poor fit]
COc1ccc(OC)c(NC(=O)CSc2nc3nc(C)cc(C)n3n2)c1	24.4%		0.146 µM [rising, full curve, poor fit]
COc1cccc(Oc2ccc(N)cc2)c1		0.00461 µM [falling, full curve, poor fit]	6.51 µM [falling, single point]
Cc1nc(-c2ccccn2)nc(SCC(=O)c2ccc(F)cc2)c1Cl		0.103 µM [rising, full curve, poor fit]	0.184 µM [rising, full curve, poor fit]
Fc1ccc(-c2cc(C(F)(F)F)nc(-n3cccn3)n2)cc1	13.8%	0.116 µM [rising, full curve, poor fit]	0.366 µM [rising, full curve, poor fit]
O=C(c1cccc(Cl)c1)N1CCCC(c2ccc(Cl)cc2)=N1	-39.7%	7.31 µM [falling, partial curve]	7.31 µM [falling, partial curve]
Cc1ccsc1C(=O)Nc1ccc(S(=O)(=O)N2CCOCC2)cc1	5.66%		0.00461 µM [rising, full curve, poor fit]
Cc1csc(SCC(=O)Nc2ccccn2)n1	-13.4%		3.26 µM [falling, single point]
COC1CCN(C(=O)c2ccc3oc(C(C)C)nc3c2)CC1	2.67%		
CCOc1ccccc1OCC(=O)OCC(=O)c1c(N)n(CC(C)C)c(=O)n(C)c1=O	21.4%		18.4 µM [rising, single point]
O=C1C2ON(c3ccccc3)C(c3ccccn3)C2C(=O)N1c1ccc(Br)cc1 (stereo not drawn)	0.807%		23.1 µM [rising, single point]
Cc1ccccc1C(=O)NC1CC(C)(C)NC(C)(C)C1	-7.54%		25.9 µM [falling, partial curve]
COc1cc(NC(=O)CCS(=O)(=O)c2ccc3c(c2)oc(=O)n3C)cc(OC)c1	-3.24%		0.517 µM [rising, full curve]
CCCN(CCC)CCNc1c(N2CCN(C(=O)OCC)CC2)c(=O)c1=O	5.5%		0.731 µM [falling, full curve]

Reprinted at random: 4 entries already listed
Structure (SMILES)	cell number change	AC50 [1]	AC50 [2]
COc1ccc2[nH]c3c(=O)n(CCc4ccccc4)cnc3c2c1	32.3%	1.46 µM [rising, full curve]	7.31 µM [rising, partial curve]
Cc1ccsc1C(=O)Nc1ccc(S(=O)(=O)N2CCOCC2)cc1	5.66%		0.00461 µM [rising, full curve, poor fit]
O=C1C=C(c2cc3ccccc3s2)C[C@@H](c2ccc3c(c2)OCO3)C1	10.6%		0.116 µM [rising, full curve, poor fit]
COc1ccc(-n2c(SCc3ccc([N+](=O)[O-])cc3)nnc2-c2ccc(C)cc2)cc1	-8.14%		23.1 µM [rising, single point]
